Test results reported in PubChem BioAssay AID624297 (National Center for Advancing Translational Sciences (NCATS), 2012).
The whole screen tested about 340,000 compounds, of which about 6,200 (1.8%) were called active. Inconclusive means that the source gave no clear call. Such entries were picked first, then a sample of the others. Calls follow the shape of the dose curve; as a rule, active = well fitted activation curve with a large enough effect; inconclusive = small, poorly fitted or top-dose-only effect; inactive = no such curve, though single readings can be large or run the other way. Potencies beside an inconclusive call are fits to weak or partial responses and may not hold up.

Test: A quantitative high throughput screen for small molecules that induce DNA re-replication in SW480 colon adenocarcinoma cells. Also: nearly all actives have a fitted effect of over 55% in size.
Conditions: Hoechst DNA content imaging, 48 h; series mostly up to 46.1 µM
Summary of the method: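 Per well, 250 cells were exposed to pinned compound for 48 hr. Nuclear DNA was visualised with Hoechst (40 min, 37 C) and total object intensity recorded by fluorescence scanning.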
Potency is read from the fitted curve at half-maximal effect.

| SMILES | Potency |
| --- | --- |
| CCc1nnc(NC(=O)CSc2nnc3c(C)cc4c(C)ccc(C)c4n23)s1 | inconclusive: 18.4 µM [activator, single point] |
| CC(C)c1ccc(N(CC(=O)NCc2ccco2)C(=O)CCC(=O)Nc2ccccn2)cc1 | inactive |
| COC(=O)c1sc(N2C(=O)c3oc4ccccc4c(=O)c3C2c2cccs2)nc1C (stereo not drawn) | inactive |
| O=C(CCC1CCCN(Cc2ccc3c(c2)OCCO3)C1)NCc1ccc(F)c(F)c1 (stereo not drawn) | inconclusive: 23.1 µM [activator, single point] |
| CC(C)c1ccccc1NC(=O)CNCCc1ccc(C(F)(F)F)cc1 | inconclusive: 4.61 µM [activator, single point] |
| COc1ccc(C(=O)/C=C/c2cn(CN3CCN(C)CC3)c3ccccc23)cc1 | active: 20.6 µM |
| C[C@]1(c2ccccc2)OC(C(=O)O)=CC1=O | inactive |
| CC(=O)Nc1cccc(C(=O)Nc2ccccc2N2CCOCC2)c1 | inconclusive: 29.1 µM [activator, single point] |
| COc1ccc2cc(CN(CCCN3CCOCC3)Cc3nnnn3C3CCCC3)c(=O)[nH]c2c1 | inactive |
| CCc1ccc(NC(=O)CSc2nc3ccccc3c(=O)n2CCCC(=O)NCCCN2CCOCC2)cc1 | inconclusive: 29.1 µM [activator, single point] |
| CCN(C(=O)c1ccccc1)c1ccc([N+](=O)[O-])cc1 | inconclusive: 32.6 µM [activator, partial curve, poor fit] |
| Cc1[nH]c(-c2ccc(F)cc2)cc1C(=O)N1CCN(c2cccc(Cl)c2)CC1 | inconclusive: 29.1 µM [activator, single point] |
| COC(=O)c1cc(-c2ccc(OC)cc2)nc2nc(SC)[nH]c(=O)c12 | inconclusive: 0.731 µM [activator, full curve, poor fit] |
| COc1cccc(C(=O)NCCS(=O)(=O)N(C)Cc2ccccc2)c1 | inactive |
| Cc1cccc(NC(=O)C2CCN(S(=O)(=O)c3ccc4c(c3)OCCCO4)CC2)n1 | inconclusive: 29.1 µM [activator, partial curve, poor fit] |
| CCCCOC(=O)c1ccc(NC(=S)NC(=O)c2ccco2)cc1 | inconclusive: 0.0058 µM [activator, full curve, poor fit] |
| C[C@H](CO)N1C[C@H](C)[C@@H](CN(C)C(=O)NC2CCCCC2)Oc2c(NC(=O)Nc3ccc(C(F)(F)F)cc3)cccc2C1=O | inconclusive: 2.91 µM [activator, full curve, poor fit] |
| Cc1ccc2c(c1)[C@H]1[C@H](CO2)[C@H](c2ccccc2)[C@]2(C)C(=O)Nc3ccccc3C(=O)N12 | active: 9.2 µM |
| COc1ccc(/C=N/NC(=O)C(C)Sc2ccccn2)cc1[N+](=O)[O-] (stereo not drawn) | inactive |
| COc1ccccc1NC(=O)Nc1cc(NC(=O)Nc2ccccc2OC)c(C)nc1C | inconclusive: 18.4 µM [activator, single point] |
| Cc1ccc(NC(=O)CN(C)C(=O)CCSc2ccc(F)cc2)cc1 | inactive |
| Cc1cccn2c(=O)c3cc(C#N)c(=NC(=O)c4cccnc4)n(CC4CCCO4)c3nc12 (stereo not drawn) | active: 18.4 µM |

| SMILES | Potency |
| --- | --- |
| O=C(COC(=O)c1cnccn1)c1ccc(Br)cc1 | inactive |
| CC(On1nnc2ccc(S(=O)(=O)N3CCOCC3)cc21)C(=O)Nc1ccccc1F (stereo not drawn) | inconclusive: 18.4 µM [activator, single point] |
| Cc1cc(C)cc(NC(=O)c2ccc([N+](=O)[O-])o2)c1 | inconclusive: 6.51 µM [activator, partial curve, poor fit] |
| CCOc1ccccc1CNc1ccc(O)cc1 | inconclusive: 29.1 µM [activator, single point] |
| Cc1ccc(C)c(OCc2nnc(N)s2)c1 | active: 0.731 µM |
| O=C(Nc1nnc(-c2ccco2)o1)c1ccc([N+](=O)[O-])s1 | inconclusive: 29.1 µM [activator, single point] |
| CCOc1ccc(NC(=O)NC2CCCCCCC2)cc1 | inconclusive: 23.1 µM [activator, partial curve, poor fit] |
| Cc1nc(-c2ccc(Cl)cc2)sc1C(=O)NN | inconclusive: 14.6 µM [activator, single point] |
| CCO[C@@H]1OC(C(=O)NCc2nc3ccccc3[nH]2)=C[C@H](c2ccc(C(F)(F)F)cc2)[C@H]1CCCO | inconclusive: 0.116 µM [activator, full curve] |
| COc1cc(C(=O)OCc2ccc([N+](=O)[O-])cc2)cc(OC)c1OC | inconclusive: 1.84 µM [activator, partial curve, poor fit] |
| COC(=O)c1cc(S(=O)(=O)NCC2CCN(CCc3cccs3)CC2)cn1C | inactive |
| Cc1cc(Cl)c(OCCCN2CCCCC2)c(Br)c1 | inactive |
| COc1ccc(C(=O)c2sc(Nc3ccccc3)nc2N)cc1 | inconclusive: 6.51 µM [activator, partial curve] |
| CCN(C[C@H]1N[C@@](Cc2ccccc2)(C(=O)OC)[C@H]2C(=O)N(C)C(=O)[C@@H]12)C(C)=O | inconclusive: 0.0326 µM [activator, full curve, poor fit] |
| CCNS(=O)(=O)c1c(C)cc(N2CCCC2=O)cc1C | inconclusive: 12.6 µM [activator, single point] |
| CCN(CC)c1ccc(/C=N/Nc2ccccc2)c(O)c1 | inconclusive: 16.4 µM [activator, single point] |
| COc1ccc(-c2nn3c(-c4ccccc4)nnc3s2)cc1 | inactive |
| COc1ccc(C2CC(c3ccccc3)=NN2C(=O)c2ccc(Cl)c([N+](=O)[O-])c2)cc1 (stereo not drawn) | inconclusive: 23.1 µM [activator, partial curve, poor fit] |
| CSCCC(NS(=O)(=O)c1ccc(Cl)cc1)C(=O)OCc1cccc(Cl)c1 (stereo not drawn) | inconclusive: 25.9 µM [activator, partial curve, poor fit] |
| CC(C)(C)C(=O)NC(=S)Nc1ccccn1 | inactive |
| C=CCOc1c(Br)cc(CNc2ccc(NC(=O)C(C)C)c(OC)c2)cc1OC | active: 18.4 µM |
